From publication PMC11628624
Results are given in words; binding and its absence hold for the method and conditions named. In cells and extracts the contact can be indirect. Some results given as binding are weak or reduced against the parent protein; the word gives no strength.

Protein sequences, listed by entry. Tags and fused reporters are not part of them.
UniProt Q06330: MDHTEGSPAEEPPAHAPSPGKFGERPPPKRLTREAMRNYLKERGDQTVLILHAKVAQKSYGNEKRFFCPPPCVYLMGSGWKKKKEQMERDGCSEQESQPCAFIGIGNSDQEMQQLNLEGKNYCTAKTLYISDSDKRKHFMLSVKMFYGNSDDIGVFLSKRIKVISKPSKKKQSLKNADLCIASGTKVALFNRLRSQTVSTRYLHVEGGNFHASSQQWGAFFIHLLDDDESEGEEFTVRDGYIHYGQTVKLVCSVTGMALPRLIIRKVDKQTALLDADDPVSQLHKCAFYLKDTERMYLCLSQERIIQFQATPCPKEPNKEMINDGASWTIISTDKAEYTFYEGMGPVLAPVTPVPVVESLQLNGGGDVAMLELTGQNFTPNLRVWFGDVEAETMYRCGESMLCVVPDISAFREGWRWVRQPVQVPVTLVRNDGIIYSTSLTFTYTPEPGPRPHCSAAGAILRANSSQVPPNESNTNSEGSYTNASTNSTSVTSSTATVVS
UniProt P48431: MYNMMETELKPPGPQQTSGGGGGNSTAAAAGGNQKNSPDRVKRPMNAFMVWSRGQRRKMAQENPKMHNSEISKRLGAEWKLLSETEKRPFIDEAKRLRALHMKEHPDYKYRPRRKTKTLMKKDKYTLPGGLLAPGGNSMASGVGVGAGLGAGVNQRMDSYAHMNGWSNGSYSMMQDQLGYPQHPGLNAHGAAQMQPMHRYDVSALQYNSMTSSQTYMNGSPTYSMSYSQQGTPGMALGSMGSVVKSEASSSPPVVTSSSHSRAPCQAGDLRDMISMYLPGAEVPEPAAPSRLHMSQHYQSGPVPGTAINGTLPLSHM

Assays:
[1] = biological target: RBPJ (endogenous) (human (endogenous in MB157 and MB157R)) (UniProt Q06330); test: co-IP; iSOX2 MB157 cells (DOX-induced HA-tagged SOX2); lysis buffer 20 mM Tris pH 8.0, 150 mM NaCl, 1% NP-40, 10% glycerol; 2 mg protein, overnight at 4 °C with anti-HA or anti-RBPJ antibody and Protein A Sepharose; 5 washes; immunoblot
[2] = biological target: SOX2 (endogenous, MB157R cells) (human (endogenous in MB157R)) (UniProt P48431); test: co-IP; MB157R cells, endogenous proteins; lysis buffer 20 mM Tris pH 8.0, 150 mM NaCl, 1% NP-40, 10% glycerol; 2 mg protein, overnight at 4 °C with anti-SOX2 or anti-RBPJ antibody and Protein A Sepharose; 5 washes; immunoblot
[3] = biological target: HA-tagged SOX2 (DOX-inducible, iSOX2) (UniProt P48431); test: co-IP; iSOX2 MB157 cells (DOX-induced HA-tagged SOX2); lysis buffer 20 mM Tris pH 8.0, 150 mM NaCl, 1% NP-40, 10% glycerol; 2 mg protein, overnight at 4 °C with anti-HA or anti-RBPJ antibody and Protein A Sepharose; 5 washes; immunoblot
[4] = biological target: RBPJ (endogenous) (human (endogenous in MB157 and MB157R)) (UniProt Q06330); test: co-IP; MB157R cells, endogenous proteins; lysis buffer 20 mM Tris pH 8.0, 150 mM NaCl, 1% NP-40, 10% glycerol; 2 mg protein, overnight at 4 °C with anti-SOX2 or anti-RBPJ antibody and Protein A Sepharose; 5 washes; immunoblot

HA-tagged SOX2 (DOX-inducible, iSOX2) (from UniProt P48431 1-317)
binding [1]: binds

RBPJ (endogenous) (from UniProt Q06330 1-500)
binding [2]: binds | binding [3]: binds

SOX2 (endogenous, MB157R cells) (from UniProt P48431 1-317)
binding [4]: binds
